According to paper PMC4585558:
These are yes or no findings as the source states them, for the method shown. Binding seen in cells or lysates may run through a third protein. Some entries that bind do so weakly or less than the wild type.

By UniProt entry, the sequences of proteins in these tests, tags left out.
UniProt Q16539: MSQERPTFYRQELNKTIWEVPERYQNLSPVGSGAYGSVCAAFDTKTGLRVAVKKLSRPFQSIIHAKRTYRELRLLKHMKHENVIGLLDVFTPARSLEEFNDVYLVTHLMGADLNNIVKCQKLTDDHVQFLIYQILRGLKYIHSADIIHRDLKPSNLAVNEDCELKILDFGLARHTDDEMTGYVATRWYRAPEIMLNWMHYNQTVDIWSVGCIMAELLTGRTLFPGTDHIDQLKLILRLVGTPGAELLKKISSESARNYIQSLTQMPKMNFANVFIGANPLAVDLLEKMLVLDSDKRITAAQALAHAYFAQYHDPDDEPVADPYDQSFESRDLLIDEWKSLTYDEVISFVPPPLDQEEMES

Target: p38α (expressed in 293T cells for Fig. 4C) (UniProt Q16539)
Test: co-IP; 293T cells co-transfected with expression vectors; lysates (20 mM Tris-Cl pH 7.6, 120 mM NaCl, 10% glycerol, 2 mM EDTA, 1% Triton X-100) immunoprecipitated with anti-FLAG Ab and protein A-Sepharose at 4 °C for 4 hours; IB

- binding: binds
B1: MKK3b (expressed in 293T cells for Fig. 4C) (enzyme, UniProt P46734 1-347)
chain: MESPASSQPASMPQSKGKSKRKKDLRISCMSKPPAPNPTPPRNLDSRTFITIGDRNFEVEADDLVTISELGRGAYGVVEKVRHAQSGTIMAVKRIRATVNSQEQKRLLMDLDINMRTVDCFYTVTFYGALFREGDVWICMELMDTSLDKFYRKVLDKNMTIPEDILGEIAVSIVRALEHLHSKLSVIHRDVKPSNVLINKEGHVKMCDFGISGYLVDSVAKTMDAGCKPYMAPERINPELNQKGYNVKSDVWSLGITMIEMAILRFPYESWGTPFQQLKQVVEEPSPQLPADRFSPEFVDFTAQCLRKNPAERMSYLELMEHPFFTLHKTKKTDIAAFVKEILGEDS
